Laboratory results from US10577404B2, “Polypeptide derivatives from grass carp interferon and application thereof” (priority 2018, dated 2020).
Not every detail of the peptide structures is certain; ends, links or a residue may be inferred. Ends that are not written are not given here.

Experiments:
[1] = test system: pathogenic Escherichia coli; assay: Peritonitis survival rate in mice; assay type: in vivo, BALB/c mice; settings: E. coli peritonitis; for mortality rate: 7 days
[2] = test system: pathogenic Escherichia coli; assay: Bacterial load in organs of mice with peritonitis; assay type: in vivo, BALB/c mice; settings: mice 24 hours after infection, vs E. coli/PBS

Sequence: SYEKKINRHFKILKKNLKKK [Interferon-derived polypeptide]
- mortality rate ([1]; continuous injection of 25 μg (1 hour, 3 hours and 5 hours after infection)): 0
- time of death ([1]; injected with polypeptide, control group all die within 0-48 h): > 48 h
- mortality rate ([1]; single injection of 25-200 μg 1 hour after infection): 60%-80%
- decrease of tissue burden (bacterial load) ([2]; blood): about 1000 times
- decrease of tissue burden (bacterial load) ([2]; brains): 10-100 times
- decrease of tissue burden (bacterial load) ([2]; kidneys): 10-100 times
- decrease of tissue burden (bacterial load) ([2]; livers): about 1000 times
- decrease of tissue burden (bacterial load) ([2]; lungs): 10-100 times
- decrease of tissue burden (bacterial load) ([2]; spleens): about 1000 times
